These results are taken from article PMC4889050.

Chains of the proteins cited; added tags and fusions are not shown.
UniProt P83916: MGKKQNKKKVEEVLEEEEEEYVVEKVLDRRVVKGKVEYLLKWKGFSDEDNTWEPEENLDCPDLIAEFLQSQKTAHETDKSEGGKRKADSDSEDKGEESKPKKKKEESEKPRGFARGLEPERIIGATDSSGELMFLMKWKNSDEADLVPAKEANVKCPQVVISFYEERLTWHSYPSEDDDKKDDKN
UniProt Q13185: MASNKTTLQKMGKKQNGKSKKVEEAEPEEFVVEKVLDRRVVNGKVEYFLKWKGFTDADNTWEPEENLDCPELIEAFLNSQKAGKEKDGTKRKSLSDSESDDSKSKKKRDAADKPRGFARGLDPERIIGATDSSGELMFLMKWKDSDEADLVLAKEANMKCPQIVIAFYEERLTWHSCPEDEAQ
UniProt P45973: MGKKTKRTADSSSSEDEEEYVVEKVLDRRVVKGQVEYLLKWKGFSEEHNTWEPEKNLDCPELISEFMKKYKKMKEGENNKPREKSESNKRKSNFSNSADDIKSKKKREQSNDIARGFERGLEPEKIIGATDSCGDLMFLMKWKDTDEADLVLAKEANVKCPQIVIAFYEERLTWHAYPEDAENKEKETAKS
UniProt P09874: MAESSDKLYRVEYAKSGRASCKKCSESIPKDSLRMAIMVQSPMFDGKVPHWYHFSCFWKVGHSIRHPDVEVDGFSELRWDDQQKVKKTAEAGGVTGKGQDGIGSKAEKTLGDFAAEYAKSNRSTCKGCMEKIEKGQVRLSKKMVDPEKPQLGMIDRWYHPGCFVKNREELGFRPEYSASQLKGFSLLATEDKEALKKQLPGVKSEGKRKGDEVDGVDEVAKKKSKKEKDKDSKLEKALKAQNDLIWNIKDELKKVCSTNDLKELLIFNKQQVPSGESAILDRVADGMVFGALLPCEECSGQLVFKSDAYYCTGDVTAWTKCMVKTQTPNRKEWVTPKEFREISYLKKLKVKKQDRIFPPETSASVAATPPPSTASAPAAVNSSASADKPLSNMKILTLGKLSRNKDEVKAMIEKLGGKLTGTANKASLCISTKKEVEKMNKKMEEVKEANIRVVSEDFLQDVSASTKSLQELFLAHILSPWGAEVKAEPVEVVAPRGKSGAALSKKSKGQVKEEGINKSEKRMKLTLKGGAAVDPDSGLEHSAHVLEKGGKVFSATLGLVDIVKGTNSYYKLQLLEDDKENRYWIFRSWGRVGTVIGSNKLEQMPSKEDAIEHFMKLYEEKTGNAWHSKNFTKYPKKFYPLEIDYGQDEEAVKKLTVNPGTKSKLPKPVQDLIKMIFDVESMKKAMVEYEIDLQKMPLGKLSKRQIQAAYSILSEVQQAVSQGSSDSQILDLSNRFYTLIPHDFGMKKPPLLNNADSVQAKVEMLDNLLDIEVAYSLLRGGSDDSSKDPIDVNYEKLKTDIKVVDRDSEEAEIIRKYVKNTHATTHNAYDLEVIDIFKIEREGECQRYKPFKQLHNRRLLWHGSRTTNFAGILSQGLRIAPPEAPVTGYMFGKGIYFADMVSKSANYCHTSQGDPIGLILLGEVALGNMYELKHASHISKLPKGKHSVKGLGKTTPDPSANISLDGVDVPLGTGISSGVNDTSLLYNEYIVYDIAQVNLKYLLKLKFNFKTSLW
UniProt P13010: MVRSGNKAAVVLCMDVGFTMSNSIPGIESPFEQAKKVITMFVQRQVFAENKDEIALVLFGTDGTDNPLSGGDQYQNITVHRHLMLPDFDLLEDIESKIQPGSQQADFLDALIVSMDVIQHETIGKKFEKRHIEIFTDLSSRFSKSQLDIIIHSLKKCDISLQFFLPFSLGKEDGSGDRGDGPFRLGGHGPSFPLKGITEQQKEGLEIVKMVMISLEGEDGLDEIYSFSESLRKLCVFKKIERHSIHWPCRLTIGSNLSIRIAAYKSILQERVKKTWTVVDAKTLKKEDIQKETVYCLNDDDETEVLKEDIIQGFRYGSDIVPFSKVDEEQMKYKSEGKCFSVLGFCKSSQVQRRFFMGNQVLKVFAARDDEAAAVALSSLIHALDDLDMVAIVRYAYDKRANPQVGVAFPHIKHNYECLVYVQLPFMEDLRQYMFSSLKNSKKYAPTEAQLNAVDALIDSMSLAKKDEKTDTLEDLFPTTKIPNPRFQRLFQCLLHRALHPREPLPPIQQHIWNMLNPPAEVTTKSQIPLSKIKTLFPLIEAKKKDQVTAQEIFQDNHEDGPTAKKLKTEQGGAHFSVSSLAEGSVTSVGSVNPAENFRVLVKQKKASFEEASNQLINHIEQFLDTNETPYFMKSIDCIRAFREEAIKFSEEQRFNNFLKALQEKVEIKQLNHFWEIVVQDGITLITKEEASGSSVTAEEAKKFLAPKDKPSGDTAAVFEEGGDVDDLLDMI

For test [1], the target named is T1, Halo-WDR76 (human) (UniProt Q9H967).
T1 sequence: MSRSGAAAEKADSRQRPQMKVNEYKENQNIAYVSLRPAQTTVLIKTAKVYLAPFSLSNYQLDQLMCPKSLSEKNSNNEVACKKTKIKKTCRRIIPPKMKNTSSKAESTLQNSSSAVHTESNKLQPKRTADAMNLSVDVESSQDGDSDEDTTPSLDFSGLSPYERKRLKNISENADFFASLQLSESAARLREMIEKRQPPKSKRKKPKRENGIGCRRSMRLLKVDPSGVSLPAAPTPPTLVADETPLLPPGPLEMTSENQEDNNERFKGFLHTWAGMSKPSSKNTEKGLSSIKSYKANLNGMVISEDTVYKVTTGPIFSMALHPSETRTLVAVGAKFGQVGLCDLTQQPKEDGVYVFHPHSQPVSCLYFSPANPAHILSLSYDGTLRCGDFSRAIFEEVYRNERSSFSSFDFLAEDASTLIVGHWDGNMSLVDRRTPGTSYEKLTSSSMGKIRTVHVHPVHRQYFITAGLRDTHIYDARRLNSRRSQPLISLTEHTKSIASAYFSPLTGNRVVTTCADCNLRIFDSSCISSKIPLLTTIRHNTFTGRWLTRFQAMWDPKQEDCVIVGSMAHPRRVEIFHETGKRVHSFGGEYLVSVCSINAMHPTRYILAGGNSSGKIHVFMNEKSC
Put plainly: co-IP; HaloTag purification of Halo-WDR76 from whole cell lysate (Benzonase treated) of cells transiently transfected with CLIP-FLAG constructs, TEV elution; western blot with anti-FLAG; HEK293FRT as control. On the technique in general: A western blot detects proteins with antibodies after separation by electrophoresis.

Test [2] has as its target T1, Halo-WDR76 (human). Put plainly: co-IP; HaloTag bead purification of Halo-WDR76 from whole cell lysate (Benzonase treated), overnight at 4°C, washes 1xTBS 0.05% IGEPAL CA-630, TEV elution; western blot for endogenous PARP1 and XRCC5; parental HEK293FRT as control.

No constants are given. Whether binding was seen depends on the method and setting. In cells and extracts the contact can be indirect. Some binding calls cover weakened binding; strength is not graded here.

As to “CLIP-FLAG tagged CBX1 (from UniProt P83916 1-185)”, the binding result in the test with Halo-WDR76 (human) [1] was “binds”.

With “CLIP-FLAG tagged CBX3 (from UniProt Q13185 1-183)”, in the test with Halo-WDR76 (human) [1], the binding result is on record as “binds”.

Take “CLIP-FLAG tagged CBX5 (from UniProt P45973 1-191)”: the binding entry in the test with Halo-WDR76 (human) [1] is reported as “binds”.

Take PARP1 (from UniProt P09874 1-1014): the binding entry with Halo-WDR76 (human) [2] is “binds”.

In the case of XRCC5 (from UniProt P13010 1-732), the binding entry in the test with Halo-WDR76 (human) [2] was “binds”.
